Here are results for 17 molecules from PubChem BioAssay AID2685 (National Center for Advancing Translational Sciences (NCATS), 2010).

What is called AC50 is the concentration at which the activity in the assay is half-maximal. High values mean activity only at high concentration, low ones activity at low concentration.

A short description of this experiment: qHTS Assay for Lipid Storage Modulators in Drosophila S3 Cells.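 For cell number change: cells counted by Cell Tracker Red CMTPX staining in the red channel.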 The settings on record: BODIPY lipid droplet fluorescence, 18-24 h; for cell number change: measured here: cell count max response, cells fed with added oleic acid. An outline of the steps: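 Drosophila S3 cells loaded with oleic acid (400 uM, as added) and compounds at several concentrations; lipid droplets imaged by 488-nm laser-scanning cytometry, 500–530 nm intensity and object ratio to cell channel. Percent activity normalized to 20 uM Triacsin C.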

Where [1] appears, read: measured here: cell number channel AC50, cells fed with added oleic acid.
The mark [2] stands for this setting: measured here: lipid fluorescence (Fed channel) AC50, cells fed with added oleic acid.

Each structure is given as a SMILES string. This is one part of the list. The main result of the screen is listed elsewhere. These columns were measured beside it and carry no call. Compounds called inactive in the main read-out are mostly missing here. Potencies come from curve fits of mixed quality, noted in brackets.

As for `COCCCN1CN=C(Nc2nc3ccccc3o2)NC1`, the cell number change worked out at 33.4%. Besides, the AC50 under setting [1] is 5.8 µM [rising, partial curve, poor fit]. In addition, the AC50 under setting [2] is 32.6 µM [rising, single point]. Take `O=C(Nc1cc(Oc2ccccc2)cc([N+](=O)[O-])c1)C12CC3CC(C1)CC(n1cnc(Cl)n1)(C3)C2`: the cell number change amounted to 0.0358%. The concentration at half-maximal activity (AC50) under setting [2] was 10.3 µM [falling, single point].

As to `CCN(CC)C(=O)CSc1nnc(-c2ccccc2)n1-c1ccccc1`, the cell number change stood at 63.1%. Under setting [1], the AC50 was 29.1 µM [rising, single point]. The AC50 under setting [2] was 0.058 µM [falling, partial curve, poor fit]. In the case of `CCCC(=O)Nc1cccc(C(=O)Nc2ccccc2OCC)c1`, the cell number change was -6.05%. `CCCCN(CC)Cc1c(C)[nH]c2c(ccc3ccccc32)c1=O`: the cell number change was -32.6%. Also, the AC50 under setting [1] is 32.6 µM [falling, single point].

`C#Cc1cccc(-n2nnc(C(C)=O)c2C)c1`: the cell number change is -28.4%. In addition, under setting [2], the AC50 was 32.6 µM [falling, single point].

With `O=C(NCC1CCCO1)/C(=C\c1ccc(Cl)cc1)NC(=O)c1ccccc1` (stereo not given), the cell number change was -29.9%. On to `CC(O)C(NS(=O)(=O)c1ccc(Cl)cc1)C(=O)OCc1nnc(-c2ccccc2)o1` (stereo not given), for which the cell number change is -50%.

On to `Cc1ccc(/C=C2/NC(=O)N(Cc3ccccc3)C2=O)o1`, for which the cell number change is 26.2%. For the same molecule, the AC50 under setting [2] is 4.61 µM [rising, partial curve].

`COc1ccc(CCNC(=O)CCCn2c(=O)c3cccn3c3cccnc32)c(OC)c1`: the AC50 under setting [2] is 13 µM [falling, partial curve]. Regarding `Cc1cccc(N(CC(=O)NC2CCCCC2)C(=O)c2ccc(C)s2)c1`, the cell number change was -19.8%. In addition, under setting [2], the AC50 was 18.4 µM [falling, single point]. Take `CCS(=O)(=O)N1CCC(NC(=O)C(Cc2ccc(OC)c(OC)c2)NC(C)=O)CC1` (stereo not given): the cell number change was determined as 1.76%. In addition, the half-maximal activity concentration (AC50) under setting [2] was 1.16 µM [rising, partial curve]. Regarding `Cc1coc2c1c(C)cc1oc(=O)c(CC(=O)NCCCCCC(=O)O)c(C)c12`, the AC50 under setting [2] was 0.58 µM [falling, single point].

For `CCCC(C)NC(=O)Cc1ccccc1[N+](=O)[O-]` (stereo not given), the cell number change is 14.5%. Under setting [1], the AC50 is 0.291 µM [rising, full curve, poor fit]. For the same molecule, under setting [2], the AC50 is 14.6 µM [rising, single point]. With `O=C1c2cccc3cccc(c23)C(=O)N1CCCN1CCN(c2ccc(F)cc2)CC1`, the cell number change was 23.2%. Further, the AC50 under setting [2] was 0.651 µM [falling, partial curve, poor fit]. For `O=C(NCCO)c1cccc(Cl)c1`, the AC50 under setting [2] is 20.6 µM [falling, partial curve]. Regarding `CC1(C)CC(n2c(=S)[nH]c3ccccc3c2=O)CCO1` (stereo not given), the AC50 under setting [1] was 2.31 µM [rising, single point].
